Values quoted from earlier work, collected in US5547674A, “Pharmaceutical preparations derived from European mistletoe” (priority 1995, dated 1996).
For at least one compound, name, drawing or mass did not settle the structure.

Experiments:
reverse transcriptase = settings: cited from earlier work
AIDS patients = settings: human, in vivo; cited from earlier work

In the case of Cc1cn([C@H]2C[C@H](N=[N+]=[N-])[C@@H](CO)O2)c(=O)[nH]c1=O [AZT, azidothymidine], the “inhibition of reverse transcriptase” value (reverse transcriptase) is listed as “inhibit reverse transcriptase” and the “prolongation of life of AIDS patients” value (AIDS patients) is listed as “prolong the life of AIDS patients for at least one year”.
